Whole data set: some 33,000 sequences, median “E-score (-0.5 to 0.5)” near -8e-05, cut for the highest 2% near 0.23. The list shows a part of the results.
These sequences were tested against T1, Nrg2 (UniProt P38082) (assay: PBM E-score (8-mer binding enrichment) (E-score (-0.5 to 0.5)); higher = stronger / more preferred TF binding). Settings: protein concentration: 100 nM; construct: GST-full length.
T1 sequence: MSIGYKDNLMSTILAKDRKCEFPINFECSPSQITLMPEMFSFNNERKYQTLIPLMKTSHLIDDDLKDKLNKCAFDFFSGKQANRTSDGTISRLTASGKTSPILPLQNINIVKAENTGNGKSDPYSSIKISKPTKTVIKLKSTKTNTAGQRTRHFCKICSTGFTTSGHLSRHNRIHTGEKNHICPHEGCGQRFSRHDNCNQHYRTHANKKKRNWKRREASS
Procedure, shortened: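 E-scores (a modified Wilcoxon-Mann-Whitney statistic) were assigned by the Universal PBM Analysis Suite to every ungapped eight-base word pooled with its reverse complement. The input came from universal all-10-mer Agilent arrays made double-stranded by primer extension and probed with GST-tagged yeast transcription factors at about 100-200 nM. Fluorescent anti-GST detected bound protein, and masliner normalised the scans.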
With GAGGATTA the “PBM E-score” value was -0.0617.
GGCAGTAA was tested, and the “PBM E-score” value was 0.0379.
GCAGCACA was tested, and the “PBM E-score” value was 0.0607.
In the case of ATCGACTC, the “PBM E-score” value is reported as -0.144.
For AGTCATCA, the “PBM E-score” value was -0.0384.
AGCCCAAC was tested, and the “PBM E-score” value was -0.0546.
With CGTCGCAG the “PBM E-score” value was 0.0454.
With ACGTAACC the “PBM E-score” value was -0.0912.
With GGACATTA the “PBM E-score” value was 0.14.
GGATGGTA was tested, and the “PBM E-score” value was 0.11.
In the case of CCCGGTGA, the “PBM E-score” value is reported as -0.253.
For CAATGATG, the “PBM E-score” value was -0.0307.
In the case of ACTGACCG, the “PBM E-score” value is reported as -0.0539.
For CATCTTGA, the “PBM E-score” value was 0.0489.
CGTGACAA was tested, and the “PBM E-score” value was 0.0462.
CTTCCCGA was tested, and the “PBM E-score” value was 0.148.
For GGAGATAC, the “PBM E-score” value was 0.0795.
For ATCTTGAG, the “PBM E-score” value was -0.00416.
In the case of CAGGGCGA, the “PBM E-score” value is reported as 0.0867.
With GGGACGAA the “PBM E-score” value was 0.0439.
For AACGCATT, the “PBM E-score” value was 0.0262.
CCCCTCCC was tested, and the “PBM E-score” value was -0.102.
In the case of TAAAAGTA, the “PBM E-score” value is reported as -0.0146.
With AATCAAGA the “PBM E-score” value was 0.087.
ATGGCCCA was tested, and the “PBM E-score” value was -0.0568.
GATTTCAA was tested, and the “PBM E-score” value was 0.0258.
In the case of TGATAAAA, the “PBM E-score” value is reported as 0.101.
In the case of ATGATTAG, the “PBM E-score” value is reported as 0.142.
With AGCCACCT the “PBM E-score” value was -0.109.
GGCTACCA was tested, and the “PBM E-score” value was -0.214.
For ATAGGACG, the “PBM E-score” value was -0.0185.
In the case of CGTTACGA, the “PBM E-score” value is reported as 0.0925.
With GCATGCGA the “PBM E-score” value was 0.226.
With GCCGTGAC the “PBM E-score” value was -0.00204.
For GGTTCTGA, the “PBM E-score” value was 0.107.
For GGACTTCA, the “PBM E-score” value was -0.0141.
For CGTAGCAG, the “PBM E-score” value was -0.0289.
ACTTGGCA was tested, and the “PBM E-score” value was -0.232.
For GTTCTCAA, the “PBM E-score” value was 0.193.
In the case of AGCCTATG, the “PBM E-score” value is reported as -0.269.
For GATGGACC, the “PBM E-score” value was 0.148.
With CGACGCAC the “PBM E-score” value was -0.0196.
In the case of ACTTCGCG, the “PBM E-score” value is reported as 0.144.
In the case of ACTACAAG, the “PBM E-score” value is reported as -0.119.
With AATACTCG the “PBM E-score” value was 0.126.
With CTACAAGA the “PBM E-score” value was -0.0397.
In the case of CGTCTGTC, the “PBM E-score” value is reported as 0.062.
With CGCGCACG the “PBM E-score” value was -0.0646.
For GACATGAA, the “PBM E-score” value was 0.0283.
For CGCTTTCA, the “PBM E-score” value was 0.136.
In the case of CTCTAACC, the “PBM E-score” value is reported as -0.189.
In the case of CAGCTCCG, the “PBM E-score” value is reported as 0.0111.
CTTCTAAC was tested, and the “PBM E-score” value was -0.256.
TAAGCCTA was tested, and the “PBM E-score” value was -0.0394.
In the case of AACTATAA, the “PBM E-score” value is reported as 0.0489.
For CATGTAGC, the “PBM E-score” value was 0.067.
In the case of TCTTTGCA, the “PBM E-score” value is reported as -0.00335.
For AAGCGTGC, the “PBM E-score” value was -0.0719.
For GCATACGA, the “PBM E-score” value was 0.0243.
With ATGACCCG the “PBM E-score” value was -0.158.
CCGCAGAA was tested, and the “PBM E-score” value was 0.245.
With CGTTTTCC the “PBM E-score” value was -0.0105.
For CTCAGGTC, the “PBM E-score” value was 0.0301.
With CATGACCC the “PBM E-score” value was 0.0364.
With CACTTGCC the “PBM E-score” value was -0.0455.
For GCCACCAC, the “PBM E-score” value was -0.12.
In the case of CTCAACCC, the “PBM E-score” value is reported as 0.00526.
With ATTTATGG the “PBM E-score” value was 0.0435.
For GGAACAGA, the “PBM E-score” value was -0.00079.
For CTGCCTAA, the “PBM E-score” value was -0.0806.
For GGCGATGA, the “PBM E-score” value was -0.0321.
For CGGCCAGC, the “PBM E-score” value was -0.00057.
In the case of AGCCCGAG, the “PBM E-score” value is reported as -0.154.
AGAGCTCT was tested, and the “PBM E-score” value was -0.0952.
CCAAGCCG was tested, and the “PBM E-score” value was -0.0871.
ACCAGCAC was tested, and the “PBM E-score” value was -0.0518.
CGAACTTA was tested, and the “PBM E-score” value was 0.0832.
For CGACGTGC, the “PBM E-score” value was 0.0858.
In the case of ATCGTCTA, the “PBM E-score” value is reported as -0.143.
In the case of CCTCGAAA, the “PBM E-score” value is reported as 0.0849.
AAGGAGTA was tested, and the “PBM E-score” value was -0.0119.
With AATTGTCG the “PBM E-score” value was 0.207.
TATGGCCA was tested, and the “PBM E-score” value was 0.103.
CTTAACTC was tested, and the “PBM E-score” value was 0.0351.
In the case of AGTCGACA, the “PBM E-score” value is reported as 0.194.
For ATCCGCGA, the “PBM E-score” value was 0.0232.
With AAGGTATA the “PBM E-score” value was -0.0404.
In the case of TAAGCGCA, the “PBM E-score” value is reported as -0.169.
ACCAATGG was tested, and the “PBM E-score” value was -0.0348.
In the case of CCCCAGAA, the “PBM E-score” value is reported as -0.0495.
CACCCACC was tested, and the “PBM E-score” value was 0.0416.
In the case of ACAGTCAC, the “PBM E-score” value is reported as -0.137.
CCCAGAGC was tested, and the “PBM E-score” value was -0.234.
GGCATACA was tested, and the “PBM E-score” value was 0.0592.
TAAGTTGA was tested, and the “PBM E-score” value was -0.00176.
In the case of CAGGCGTA, the “PBM E-score” value is reported as 0.00424.
For ACTTCCCT, the “PBM E-score” value was 0.137.
GAGTGCCC was tested, and the “PBM E-score” value was -0.0655.
For GGTTCACA, the “PBM E-score” value was 0.103.
In the case of AACAAGTT, the “PBM E-score” value is reported as -0.0278.
For AGTGCAGA, the “PBM E-score” value was -0.0644.
AGTACAGC was tested, and the “PBM E-score” value was -0.00081.
AAAACCGC was tested, and the “PBM E-score” value was -0.0198.
With AGGTCGTA the “PBM E-score” value was -0.0728.
For ACTCCTCA, the “PBM E-score” value was -0.24.
In the case of ATACAATC, the “PBM E-score” value is reported as -0.0431.
In the case of AAACTCCA, the “PBM E-score” value is reported as -0.0585.
For ACGACTAG, the “PBM E-score” value was -0.00103.
For CGCCCGCC, the “PBM E-score” value was 0.085.
CATGGCGC was tested, and the “PBM E-score” value was 0.0143.
For CACGACGC, the “PBM E-score” value was -0.00663.
ACGGGGCG was tested, and the “PBM E-score” value was 0.173.
CGCATCCG was tested, and the “PBM E-score” value was 0.0205.
For ATCCATTA, the “PBM E-score” value was 0.0714.
AGATTTGC was tested, and the “PBM E-score” value was 0.167.
With ATACATCG the “PBM E-score” value was 0.0815.
With AACGCATG the “PBM E-score” value was 0.0235.
ATCGCCAA was tested, and the “PBM E-score” value was -0.0232.
GGGTCGCA was tested, and the “PBM E-score” value was -0.07.
With ACCATGCG the “PBM E-score” value was -0.051.
In the case of ATGTCCTC, the “PBM E-score” value is reported as 0.0325.
In the case of CATTGGTA, the “PBM E-score” value is reported as 0.0651.
GCTCTTGA was tested, and the “PBM E-score” value was -0.00498.
For CGCCTATC, the “PBM E-score” value was 0.0245.
CGTGTGGC was tested, and the “PBM E-score” value was -0.0389.
ACTACCAG was tested, and the “PBM E-score” value was -0.136.
With AGTCATGG the “PBM E-score” value was -0.0826.
CTCACACC was tested, and the “PBM E-score” value was -0.204.
AGAGAATG was tested, and the “PBM E-score” value was 0.0251.
In the case of AATAAAGT, the “PBM E-score” value is reported as 0.252.
In the case of GCTATGCC, the “PBM E-score” value is reported as -0.189.
With CCCTGCTA the “PBM E-score” value was 0.0162.
With TCTATCAA the “PBM E-score” value was 0.0406.
With TGATTACA the “PBM E-score” value was 0.0322.
In the case of AGCTACTG, the “PBM E-score” value is reported as 0.0202.
TAACGCCA was tested, and the “PBM E-score” value was -0.0901.
In the case of ATGCCTAG, the “PBM E-score” value is reported as -0.0724.
For CAACCTCC, the “PBM E-score” value was -0.184.
In the case of ATCAAGAA, the “PBM E-score” value is reported as 0.0761.
AGTATCCA was tested, and the “PBM E-score” value was 0.0505.
ACCCCTAT was tested, and the “PBM E-score” value was 0.256.
With AAGATGAA the “PBM E-score” value was 0.149.
For CGACCTGC, the “PBM E-score” value was -0.0924.
With GTCAACGA the “PBM E-score” value was 0.0389.
CGATGTGC was tested, and the “PBM E-score” value was 0.018.
With CAGTGTGA the “PBM E-score” value was 0.108.
In the case of ACTCCCAC, the “PBM E-score” value is reported as -0.00873.
GATGGCCA was tested, and the “PBM E-score” value was 0.0154.
In the case of TGATACAA, the “PBM E-score” value is reported as 0.112.
In the case of GTGCGTTA, the “PBM E-score” value is reported as 0.0327.
With ACCATTCT the “PBM E-score” value was -0.0116.
For GACAGGAA, the “PBM E-score” value was 0.103.
In the case of CACCCTGA, the “PBM E-score” value is reported as 0.201.
With CTGCGCAA the “PBM E-score” value was 0.142.
With CGATCCGA the “PBM E-score” value was 0.117.
With CACCCTCC the “PBM E-score” value was -0.112.
For CAAAACAC, the “PBM E-score” value was 0.0285.
TAACTACA was tested, and the “PBM E-score” value was 0.0268.
For ACGTAGAG, the “PBM E-score” value was -0.195.
With CTGTATGA the “PBM E-score” value was -0.113.
In the case of AACGAGCT, the “PBM E-score” value is reported as 0.0638.
AAACCTTC was tested, and the “PBM E-score” value was -0.153.
With CCTCAGCG the “PBM E-score” value was -0.0567.
GATTGTTA was tested, and the “PBM E-score” value was 0.116.
For CCAGTAGC, the “PBM E-score” value was -0.0699.
For CCCGACTC, the “PBM E-score” value was -0.0653.
For ATGAACTG, the “PBM E-score” value was 0.173.
For AGTGGAAG, the “PBM E-score” value was -0.194.
In the case of CAGACATG, the “PBM E-score” value is reported as 0.00828.
AGCTACCC was tested, and the “PBM E-score” value was -0.0919.
In the case of ATTATGCC, the “PBM E-score” value is reported as 0.115.
With ACAACCGA the “PBM E-score” value was 0.136.

Source: the supplement of paper PMC3334620
